{
  "source": "patent US7628765B2",
  "about": "“Increasing retrievable cells from a breast duct” (Cytyc Corporation, priority 2001, dated 2009)",
  "tested_on": "breast ducts of live rabbits",
  "experiment": "Hematoxylin and Eosin cytology of collected ductal fluid",
  "format": "in vivo, New Zealand rabbit",
  "details": "for cellular analysis of collected fluid: HE stain",
  "description": "Davidson green dye (1 ul) was added to each microfuge tube containing fluid for the purpose of taking a picture. The rabbit was euthanized by IV injection of supersaturated KCI. PBS (1.5 ul) was added to each collection. The cells were spun onto Shandon coated slide using megafunnel and cytospin-3 machine (Shandon, Inc. located in Pittsburgh, Pa.) at a speed of 1500/per minute for 15 minutes. The cells were fixed on the slide in 95% ethanol for 10 minutes. The cells were stained using Hematoxylin and Eosin (HE) method of cytology of collected fluid.",
  "data": [
    {"smiles": "OC[C@@H](O)[C@@H](O)[C@H](O)[C@H](O)CO", "note": "[mannitol, D-Mannitol]", "values": [
      {"measurement": "cell morphology compared with PBS injected ducts", "setting": "fluid collected from mannitol and PBS injected ducts", "value": "looked similar"},
      {"measurement": "cellular analysis of collected fluid", "setting": "nipple A, duct A1 (0.4 ml mannitol 12.5%)", "value": "A few ductal"},
      {"measurement": "cellular analysis of collected fluid", "setting": "nipple B, duct B1 (0.5 ml mannitol 12.5%)", "value": "A few ductal"},
      {"measurement": "cellular analysis of collected fluid", "setting": "nipple C, duct C1 (0.7 ml mannitol 12.5%)", "value": "A few ductal"}
    ]}
  ]
}
